{
  "source": "paper PMC8749417",
  "binders": {"B1": {"name": "porcine Caspase-1, HA-tagged (HA-pCaspase-1) (enzyme, UniProt Q9N2I1 1-404)", "chain": "MADKVLKEKRRLFVRSVAMGTINGLLDELLETRVLNQEEVEIVRGENATVMDKARALIDSVIRKGPQACQICINHICGDDPHLAGVLELSTGSQSGKCLTVQESQAVVPPFPAPQTVQDNPVKPASSEPRGSLKLCPPDIAQRLWKEKSAEIYPIMGKSIRTRLALIICNTEFENLPRRDGADVDIRDMKILLEDLGYSVDVRENLTASDMAIELKAFAARPEHKSSDSTFLVLMSHGIQAGICGKKYSEEVPDVLEVNTVFQILNTLNCPSLKDKPKVIIIQACRGEKQGVVWIKDSVGPSGNSSLLAAEDFEYDAIKKAHIEKDFIAFCSSTPDNVSWRHPLLGSLFIIKLIKILQEHAWSCGLEEIFRKVRFSFELADGRAQMPTAERVTLTRSFYLFPGH"}},
  "key": {"[1]": {"target": "Flag-pGSDMD-1-193 (porcine)", "assay": "co-IP; HEK293T cells transfected for 24 h, lysed; supernatants incubated with anti-Flag binding beads at 4°C overnight, washed with TBS 5 times, immunoblot"}, "[2]": {"target": "Flag-pGSDMD-194-279 (porcine)", "assay": "co-IP; HEK293T cells transfected for 24 h, lysed; supernatants incubated with anti-Flag binding beads at 4°C overnight, washed with TBS 5 times, immunoblot"}},
  "note": "Results are given in words; binding and its absence hold for the method and conditions named. In cells and extracts the contact can be indirect. Sequences can lack the tags named with a protein.",
  "data": [
    {"binder": "B1", "values": [
      {"measurement": "binding", "setting": "[1]", "value": "no binding"},
      {"measurement": "binding", "setting": "[2]", "value": "no binding"}
    ]}
  ]
}
